Test results taken from publication doi:10.1101/2021.04.12.439420.
No constants are given. Whether binding was seen depends on the method and setting. In cells and extracts the contact can be indirect. These calls come from enrichment with a bait or labelling near it, and not all partners need be listed.

Protein sequences, listed by entry. Tags and fused reporters are not part of them.
UniProt P63241: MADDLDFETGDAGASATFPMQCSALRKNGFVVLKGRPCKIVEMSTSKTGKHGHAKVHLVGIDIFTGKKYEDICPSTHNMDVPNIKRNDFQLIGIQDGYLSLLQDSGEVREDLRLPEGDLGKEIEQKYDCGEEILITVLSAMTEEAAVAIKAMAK

Target: RNA-Binding Protein with Multiple Splicing (human (endogenous in hESCs)) (UniProt Q93062)
Assay: affinity purification with mass spectrometry

binding: binds
Substance: eIF5A (from UniProt P63241 1-154)
